Tests used:
[1] = general procedure: Fmoc solid-phase peptide synthesis; Fmoc-Lys(Boc)-Wang Resin; HBTU / N-Methylmorpholine; settings: late stage modification step, TFA salt exchanged to AcOH salt by ion exchange resin
[2] = general procedure: Fmoc solid-phase peptide synthesis; Wang resin; HBTU / N-Methylmorpholine; settings: whole synthesis, scale 1 mmole, TFA salt

Substance | step yield [1] | crude mass [2] | crude yield [2]
Fmoc-Hyp-Gly-Gln-Leu-Gly-Ala-Leu-Gly-Pro-Lys(Dde)-PEG1-NHBoc | 71% |  | 
H-Hyp-Gly-Gln-Leu-Gly-Leu-Ala-Gly-Pro-Lys-OH TFA Salt |  | 1 g | 105%

Reference: patent publication US11613558B2 (Yuyu Pharma, Inc., priority 2018, dated 2023)
